Values from PubChem BioAssay AID743454 (Peter MacCallum Cancer Centre, 2014)
Screen: 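Knock-downs lowering viability or raising caspase 3/7 activity in vorinostat-treated resistant cells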 (primary screen). Cells: human HCT116-VR colon cancer cells, selected for vorinostat resistance. Knock-down reagent: siRNA pool against human genes, 40 nM siRNA pool. Duration: vorinostat for 24 h, read-out about 72 h after transfection. Treatment: vorinostat at 2.5 µM final. Measured: 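Cell viability by CellTiter-Fluor and caspase 3/7 activity by luminescence, each scaled to mock wells per plate, duplicates averaged, then robust z-scored over all plates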. Scale: viability robust z-score: higher = more viable cells than screen typical; caspase robust z-score: higher = more caspase 3/7 activity than screen typical. Hit rule: 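Hits are knock-downs in viability class RV1/RV2 or caspase class CA1/CA2, excluding ones that killed cells in the no-drug cell-count arm; hits then retested with single siRNAs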.
The whole screen tested about 18,000 reagents; shown is an unselected part. 450 of them (2.5%) count as active. 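Single biological run; no consistent viability z cut-off exists, so the class columns, not z-scores, define the calls.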 Unmarked entries are inactive.

Target gene	viability hit class	caspase hit class	viability robust z-score	caspase robust z-score
ATE1 (GeneID 11101)	no change	no change	0.04	1.34
AHSG (GeneID 197)	no change	no change	-1.25	-1.32
NHLH1 (GeneID 4807)	no change	no change	0.03	0.05
ARFRP1 (GeneID 10139)	no change	no change	-2.13	0.1
ACER2 (GeneID 340485)	no change	no change	-0.14	5.03
GLYAT (GeneID 10249)	no change	no change	0.78	0.14
LIAS (GeneID 11019)	no change	no change	-0.84	-1.03
PON1 (GeneID 5444)	no change	no change	0.11	2.06
ABCB9 (GeneID 23457)	no change	no change	0.8	-0.54
FNIP1 (GeneID 96459)	no change	no change	0.5	0.13
NLGN2 (GeneID 57555)	no change	no change	0.42	-0.25
GOLGB1 (GeneID 2804)	no change	no change	-0.02	-0.02
BCL11A (GeneID 53335)	no change	no change	-1.12	2.11
OTC (GeneID 5009)	no change	no change	-0.46	-0.08
SFRP5 (GeneID 6425)	no change	no change	-1.31	0.19
SPACA9 (GeneID 11092)	no change	no change	0.12	-0.06
LDB1 (GeneID 8861)	no change	no change	1	-0.76
PRSS23 (GeneID 11098)	no change	no change	-0.04	1.54
PPY (GeneID 5539)	no change	no change	-0.04	1.34
DAZ1 (GeneID 1617)	no change	no change	-0.61	0.18
HAMP (GeneID 57817)	no change	no change	1.53	-0.14
LRRC19 (GeneID 64922)	no change	no change	-1.03	-0.82
MAN1A2 (GeneID 10905)	no change	no change	0.8	0.34
CUEDC2 (GeneID 79004)	no change	no change	1.29	-0.22
CEP152 (GeneID 22995)	no change	no change	-0.7	3.78
CCNO (GeneID 10309)	no change	no change	1.28	0.04
GON7 (GeneID 84520)	no change	no change	-0.72	-0.46
OCA2 (GeneID 4948)	no change	no change	0.49	-0.72
NSG2 (GeneID 51617)	no change	no change	0.26	-0.02
MACO1 (GeneID 55219)	no change	no change	0.47	-0.57
OR52J3 (GeneID 119679)	no change	no change	-0.27	3.37
GK2 (GeneID 2712)	no change	no change	0.98	0.23
NIPSNAP3A (GeneID 25934)	no change	no change	1.29	-0.36
HSD17B3 (GeneID 3293)	no change	no change	0.94	-0.37
HOXA10 (GeneID 3206)	no change	no change	-0.1	0.04
MBD4 (GeneID 8930)	no change	no change	1.73	-0.44
FADS3 (GeneID 3995)	no change	no change	-0.89	0.36
EXD2 (GeneID 55218)	no change	no change	1.42	0.06
TSHZ2 (GeneID 128553)	no change	no change	-0.11	0.06
RIN3 (GeneID 79890)	no change	no change	0.14	-0.64
NR2F2 (GeneID 7026)	no change	no change	-1.24	0.58
CDC16 (GeneID 8881)	no change	no change	-0.14	0.1
ITGB1 (GeneID 3688)	no change	no change	-1.7	2.14
NPHS1 (GeneID 4868)	no change	no change	-0.07	-0.34
MTAP (GeneID 4507)	no change	no change	0.22	-0.26
LRRN1 (GeneID 57633)	no change	no change	-2.3	0.11
CBFB (GeneID 865)	no change	no change	0.85	1
MYBPC2 (GeneID 4606)	no change	no change	-0.93	0.56
ASCC3 (GeneID 10973)	no change	no change	-1.04	0.06
CELA3A (GeneID 10136)	no change	no change	0.02	-0.18
ANXA9 (GeneID 8416)	no change	no change	-1.23	-0.76
SP5 (GeneID 389058)	no change	no change	0.53	-0.48
ADGRG5 (GeneID 221188)	no change	no change	-0.38	-0.38
ZC3H13 (GeneID 23091)	no change	no change	1.4	-0.61
COPS4 (GeneID 51138)	no change	no change	0.9	0.16
NKX2-2 (GeneID 4821)	no change	no change	-1.38	1.82
ZBTB37 (GeneID 84614)	no change	no change	-0.06	-0.45
